From patent publication US20130225581A1, “NITROGEN-CONTAINING AROMATIC HETEROCYCLIC DERIVATIVE” (KYOWA HAKKO KIRIN CO., LTD, priority 2010, published 2013)
Some entries share one result that the patent states for a list of compounds.

Chains of the proteins cited; added tags and fusions are not shown. Residues count along the entry.
UniProt P21802, 22-821: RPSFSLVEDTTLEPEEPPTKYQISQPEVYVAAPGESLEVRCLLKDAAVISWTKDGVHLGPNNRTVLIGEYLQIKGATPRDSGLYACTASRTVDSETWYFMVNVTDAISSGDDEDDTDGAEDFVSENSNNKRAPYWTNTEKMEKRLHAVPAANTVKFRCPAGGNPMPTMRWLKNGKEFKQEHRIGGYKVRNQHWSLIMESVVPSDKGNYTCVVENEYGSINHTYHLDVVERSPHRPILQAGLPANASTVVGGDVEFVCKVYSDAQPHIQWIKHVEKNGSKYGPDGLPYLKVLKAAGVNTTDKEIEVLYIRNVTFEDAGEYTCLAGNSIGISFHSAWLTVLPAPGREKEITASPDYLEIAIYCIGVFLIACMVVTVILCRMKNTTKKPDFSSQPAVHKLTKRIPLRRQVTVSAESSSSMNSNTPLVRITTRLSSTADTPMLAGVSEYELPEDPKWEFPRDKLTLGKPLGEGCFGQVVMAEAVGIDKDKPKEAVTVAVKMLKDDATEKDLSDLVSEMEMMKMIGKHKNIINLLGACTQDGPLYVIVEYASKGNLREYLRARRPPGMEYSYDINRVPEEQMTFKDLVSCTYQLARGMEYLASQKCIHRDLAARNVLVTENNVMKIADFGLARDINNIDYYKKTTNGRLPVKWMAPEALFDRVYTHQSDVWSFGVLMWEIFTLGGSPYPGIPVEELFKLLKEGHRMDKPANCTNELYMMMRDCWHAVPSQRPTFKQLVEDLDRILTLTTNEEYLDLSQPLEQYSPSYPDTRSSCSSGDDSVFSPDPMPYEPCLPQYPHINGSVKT

Target: T1, Human FGFR2 (Homo sapiens, UniProt P21802)
T1 construct: purchased Millipore 14-617
Experiment: Measurement of inhibitory activity of human FGFR2 enzymatic activity (mobility shift assay)
Format: biochemical
Details: FGFR2 2 nmol/L, FL-Peptide 22 substrate, 28° C. for 240 minutes; read-out: 50% inhibitory concentration (IC50) of FGFR2 phosphorylation

## COc1cc(Oc2ccnc3cc(-c4nccn4C)sc23)ccc1NC(=O)Nc1[nH]c(C(C)(C)C)nc1-c1cccnc1Cl [Compound 84, 1-[2-tert-Butyl-4-(2-chloropyridin-3-yl)-1H-imidazol-5-yl]-3-(2-methoxy-4-{2-(1-methyl-1H-imidazol-2-yl)thieno[3,2-b]pyridin-7-yloxy}phenyl)urea]
  IC50: < 0.1 µM

## COc1cc2nccc(Oc3ccc(NC(=O)Nc4c(-c5ccccc5)nc(C(C)C)n4C)cc3F)c2cc1OC [Compound 9, 1-[4-(6,7-Dimethoxyquinolin-4-yloxy)-3-fluorophenyl]-3-(2-isopropyl-1-methyl-4-phenyl-1H-imidazol-5-yl)urea]
  IC50: < 0.1 µM

## COc1cc2nccc(Oc3ccc(NC(=O)Nc4c(-c5ccccc5F)nc(C(C)C)n4C)cc3F)c2cc1OC [Compound 13, 1-[4-(6,7-Dimethoxyquinolin-4-yloxy)-3-fluorophenyl]-3-[4-(2-fluorophenyl)-2-isopropyl-1-methyl-1H-imidazol-5-yl]urea]
  IC50: < 0.1 µM

## COc1cc2nccc(Oc3ccc(NC(=O)Nc4[nH]c(C(C)(C)C)nc4-c4cccnc4Cl)cc3F)c2cc1OC [Compound 41, 1-[2-tert-Butyl-4-(2-chloropyridin-3-yl)-1H-imidazol-5-yl]-3-[4-(6,7-dimethoxyquinolin-4-yloxy)-3-fluorophenyl]urea]
  IC50: < 0.1 µM

## COc1cc2nccc(Oc3ccc(NC(=O)Nc4[nH]c(C(C)(C)C)nc4-c4ccc(F)nc4)cc3)c2cc1OC [Compound 43, 1-[2-tert-Butyl-4-(6-fluoropyridin-3-yl)-1H-imidazol-5-yl]-3-[4-(6,7-dimethoxyquinolin-4-yloxy)phenyl]urea]
  IC50: < 0.1 µM

## COc1cc2nccc(Oc3ccc(NC(=O)Nc4[nH]c(C(C)(C)C)nc4C(=O)Nc4cccnc4)cc3)c2cc1OC [Compound 69, 2-tert-Butyl-5-{3-[4-(6,7-dimethoxyquinolin-4-yloxy)phenyl]ureido}-N-(pyridin-3-yl)-1H-imidazole-4-carboxamide]
  IC50: < 0.1 µM

## COc1cc2nccc(Oc3ccc(NC(=O)Nc4[nH]c(C(C)(C)C)nc4-c4cncc(Cl)c4)cc3)c2cc1OC [Compound 53, 1-[2-tert-Butyl-4-(5-chloropyridin-3-yl)-1H-imidazol-5-yl]-3-[4-(6,7-dimethoxyquinolin-4-yloxy)phenyl]urea]
  IC50: < 0.1 µM

## COc1cc2nccc(Oc3ccc(NC(=O)Nc4c(-c5ccccc5F)nc(C(C)(C)C)n4C)cc3F)c2cc1OC [Compound 8, 1-[2-tert-Butyl-4-(2-fluorophenyl)-1-methyl-1H-imidazol-5-yl]-3-[4-(6,7-dimethoxyquinolin-4-yloxy)-3-fluorophenyl]urea]
  IC50: < 0.1 µM

## COc1cc2nccc(Oc3ccc(NC(=O)Nc4c(-c5ccc(F)cc5)nc(C(C)(C)C)n4C)nc3)c2cc1OC [Compound 29, 1-[2-tert-Butyl-4-(4-fluorophenyl)-1-methyl-1H-imidazol-5-yl]-3-[5-(6,7-dimethoxyquinolin-4-yloxy)pyridin-2-yl]urea]
  IC50: < 0.1 µM

## COc1cc2nccc(Oc3ccc(NC(=O)Nc4[nH]c(C(C)(C)C)nc4-c4cccnc4Cl)cc3)c2cc1OC [Compound 26, 1-[2-tert-Butyl-4-(2-chloropyridin-3-yl)-1H-imidazol-5-yl]-3-[4-(6,7-dimethoxyquinolin-4-yloxy)phenyl]urea]
  IC50: < 0.1 µM

## COc1cc2nccc(Oc3ccc(NC(=O)Nc4[nH]c(C(C)(C)C)nc4-c4cccnc4)cc3)c2cc1OC [Compound 25, 1-[2-tert-Butyl-4-(pyridin-3-yl)-1H-imidazol-5-yl]-3-[4-(6,7-dimethoxyquinolin-4-yloxy)phenyl]urea]
  IC50: < 0.1 µM

## COc1cc2nccc(Oc3ccc(NC(=O)Nc4[nH]c(C(C)(C)C)nc4-c4c(C)noc4C)c(Cl)c3)c2cc1OC [Compound 48, 1-[2-tert-Butyl-4-(3,5-dimethylisoxazol-4-yl)-1H-imidazol-5-yl]-3-[2-chloro-4-(6,7-dimethoxyquinolin-4-yloxy)phenyl]urea]
  IC50: < 0.1 µM

## COc1cc2nccc(Oc3ccc(NC(=O)Nc4c(-c5ccccc5F)nc(C(C)(C)C)n4C)cc3)c2cc1OC [Compound 19, 1-[2-tert-Butyl-4-(2-fluorophenyl)-1-methyl-1H-imidazol-5-yl]-3-[4-(6,7-dimethoxyquinolin-4-yloxy)phenyl]urea]
  IC50: < 0.1 µM

## COc1cc2nccc(Oc3ccc(NC(=O)Nc4c(-c5cccc(F)c5)nc(C(C)(C)C)n4C)nc3)c2cc1OC [Compound 30, 1-[2-tert-Butyl-4-(3-fluorophenyl)-1-methyl-1H-imidazol-5-yl]-3-[5-(6,7-dimethoxyquinolin-4-yloxy)pyridin-2-yl]urea]
  IC50: < 0.1 µM

## COc1cc2nccc(Oc3ccc(NC(=O)Nc4[nH]c(C(C)(C)C)nc4-c4c(C)noc4C)c(Cl)c3)c2cc1C(N)=O [Compound 72, 4-(4-{3-[2-tert-Butyl-4-(3,5-dimethylisoxazol-4-yl)-1H-imidazol-5-yl]ureido}-3-chlorophenoxy)-7-methoxyquinoline-6-carboxamide]
  IC50: < 0.1 µM

## COc1cc2nccc(Oc3ccc(NC(=O)Nc4[nH]c(C(C)(C)C)nc4-c4ccc(C)nc4Cl)cc3)c2cc1OC [Compound 39, 1-[2-tert-Butyl-4-(2-chloro-6-methylpyridin-3-yl)-1H-imidazol-5-yl]-3-[4-(6,7-dimethoxyquinolin-4-yloxy)phenyl]urea]
  IC50: < 0.1 µM

## COc1cc2nccc(Oc3ccc(NC(=O)Nc4[nH]c(C(C)(C)C)nc4-c4ocnc4C)cc3)c2cc1OC [Compound 52, 1-[2-tert-Butyl-4-(4-methyloxazol-5-yl)-1H-imidazol-5-yl]-3-[4-(6,7-dimethoxyquinolin-4-yloxy)phenyl]urea]
  IC50: < 0.1 µM

## COc1cc2nccc(Oc3ccc(NC(=O)Nc4[nH]c(C(C)(C)C)nc4-c4c(C)noc4C)cc3Cl)c2cc1OC [Compound 46, 1-[2-tert-Butyl-4-(3,5-dimethylisoxazol-4-yl)-1H-imidazol-5-yl]-3-[3-chloro-4-(6,7-dimethoxyquinolin-4-yloxy)phenyl]urea]
  IC50: < 0.1 µM

## COc1cc2nccc(Oc3ccc(NC(=O)Nc4c(-c5ccccc5)nc(C(C)(C)C)n4C)cc3)c2cc1OC [Compound 2, 1-(2-tert-Butyl-1-methyl-4-phenyl-1H-imidazol-5-yl)-3-[4-(6,7-dimethoxyquinolin-4-yloxy)phenyl]urea]
  IC50: < 0.1 µM

## COc1cc2nccc(Oc3ccc(NC(=O)Nc4c(-c5cccc(F)c5)nc(C(C)(C)C)n4C)cc3F)c2cc1OC [Compound 18, 1-[2-tert-Butyl-4-(3-fluorophenyl)-1-methyl-1H-imidazol-5-yl]-3-[4-(6,7-dimethoxyquinolin-4-yloxy)-3-fluorophenyl]urea]
  IC50: < 0.1 µM

## COc1cc2nccc(Oc3ccc(NC(=O)Nc4[nH]c(C(C)(C)C)nc4-c4ccncc4Cl)cc3)c2cc1OC [Compound 55, 1-[2-tert-Butyl-4-(3-chloropyridin-4-yl)-1H-imidazol-5-yl]-3-[4-(6,7-dimethoxyquinolin-4-yloxy)phenyl]urea]
  IC50: < 0.1 µM

## COc1cc2nccc(Oc3ccc(NC(=O)Nc4[nH]c(C(C)(C)C)nc4-c4ccc(F)cc4F)cc3)c2cc1OC [Compound 64, 1-[2-tert-Butyl-4-(2,4-difluorophenyl)-1H-imidazol-5-yl]-3-[4-(6,7-dimethoxyquinolin-4-yloxy)phenyl]urea]
  IC50: < 0.1 µM

## COc1cc2nccc(Oc3ccc(NC(=O)Nc4c(-c5ccc(F)cc5)nc(C(C)C)n4C)cc3F)c2cc1OC [Compound 10, 1-[4-(6,7-Dimethoxyquinolin-4-yloxy)-3-fluorophenyl]-3-[4-(4-fluorophenyl)-2-isopropyl-1-methyl-1H-imidazol-5-yl]urea]
  IC50: < 0.1 µM

## COc1cc2nccc(Oc3ccc(NC(=O)Nc4c(-c5cccc(F)c5)nc(C(C)C)n4C)c(F)c3)c2cc1OC [Compound 16, 1-[4-(6,7-Dimethoxyquinolin-4-yloxy)-2-fluorophenyl]-3-[4-(3-fluorophenyl)-2-isopropyl-1-methyl-1H-imidazol-5-yl]urea]
  IC50: < 0.1 µM

## COc1cc2nccc(Oc3ccc(NC(=O)Nc4[nH]c(C(C)(C)C)nc4-c4conc4C)cc3)c2cc1OC [Compound 42, 1-[2-tert-Butyl-4-(3-methylisoxazol-4-yl)-1H-imidazol-5-yl]-3-[4-(6,7-dimethoxyquinolin-4-yloxy)phenyl]urea]
  IC50: < 0.1 µM

## COc1cc2nccc(Oc3ccc(NC(=O)Nc4[nH]c(C(C)(C)C)nc4-c4cnc(C)s4)cc3)c2cc1OC [Compound 50, 1-[2-tert-Butyl-4-(2-methylthiazol-5-yl)-1H-imidazol-5-yl]-3-[4-(6,7-dimethoxyquinolin-4-yloxy)phenyl]urea]
  IC50: < 0.1 µM

## COc1cc2nccc(Oc3ccc(NC(=O)Nc4[nH]c(C(C)(C)C)nc4-c4c(C)noc4C)cc3)c2cc1OC [Compound 24, 1-[2-tert-Butyl-4-(3,5-dimethylisoxazol-4-yl)-1H-imidazol-5-yl]-3-[4-(6,7-dimethoxyquinolin-4-yloxy)phenyl]urea]
  IC50: < 0.1 µM

## COc1cc2nccc(Oc3ccc(NC(=O)Nc4[nH]c(C(C)(C)C)nc4-c4cc(C)nc(C)c4)cc3)c2cc1OC [Compound 63, 1-[2-tert-Butyl-4-(2,6-dimethylpyridin-4-yl)-1H-imidazol-5-yl]-3-[4-(6,7-dimethoxyquinolin-4-yloxy)phenyl]urea]
  IC50: < 0.1 µM

## COc1cc2nccc(Oc3ccc(NC(=O)Nc4[nH]c(C(C)(C)C)nc4-c4cccnc4Cl)cc3Cl)c2cc1OC [Compound 58, 1-[2-tert-Butyl-4-(2-chloropyridin-3-yl)-1H-imidazol-5-yl]-3-[3-chloro-4-(6,7-dimethoxyquinolin-4-yloxy)phenyl]urea]
  IC50: < 0.1 µM

## Cc1noc(C)c1-c1nc(C(C)(C)C)[nH]c1NC(=O)Nc1ccc(Oc2ccnc3cc(-c4nccn4C)sc23)cc1 [Compound 78, 1-[2-tert-Butyl-4-(3,5-dimethylisoxazol-4-yl)-1H-imidazol-5-yl]-3-(4-{2-(1-methyl-1H-imidazol-2-yl)thieno[3,2-b]pyridin-7-yloxy}pheny)urea]
  IC50: < 0.1 µM

## COc1cc2nccc(Oc3ccc(NC(=O)Nc4cnc(C(C)(C)C)[nH]4)cc3)c2cc1OC [Compound 66, 1-(2-tert-Butyl-1H-imidazol-5-yl)-3-[4-(6,7-dimethoxyquinolin-4-yloxy)phenyl]urea]
  IC50: < 0.1 µM
